In PMC8670255:
These are yes or no findings as the source states them, for the method shown. In cells and extracts the contact can be indirect. Some entries that bind do so weakly or less than the wild type.

Amino acid sequences for entries named in this document (tags omitted). Residues count along the entry.
UniProt P05362, residues 28-532: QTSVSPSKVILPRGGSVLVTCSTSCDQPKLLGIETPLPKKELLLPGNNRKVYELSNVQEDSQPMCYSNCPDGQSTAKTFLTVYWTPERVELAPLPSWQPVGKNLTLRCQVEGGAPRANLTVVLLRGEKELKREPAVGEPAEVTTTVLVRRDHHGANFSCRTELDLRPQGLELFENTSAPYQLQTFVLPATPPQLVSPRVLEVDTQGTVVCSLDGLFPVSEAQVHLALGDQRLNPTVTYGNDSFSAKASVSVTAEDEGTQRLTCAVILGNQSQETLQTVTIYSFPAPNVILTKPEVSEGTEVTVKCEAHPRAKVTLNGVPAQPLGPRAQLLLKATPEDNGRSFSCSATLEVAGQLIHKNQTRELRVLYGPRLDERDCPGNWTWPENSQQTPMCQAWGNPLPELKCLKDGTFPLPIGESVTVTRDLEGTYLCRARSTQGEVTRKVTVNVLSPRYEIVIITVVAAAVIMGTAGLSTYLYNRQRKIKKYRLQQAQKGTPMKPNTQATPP

How the values were obtained:
[1] = target: neuraminidase-1 (NEU1), endogenous in HUVEC (human (endogenous in HUVEC)) (UniProt Q99519); test: co-IP; whole lysates of PMA-pre-stimulated HUVEC (100 nM, overnight), cells stimulated or not with κE (50 µg/mL, 1 h); same protocol as for THP-1; immunoprecipitation with mouse monoclonal anti-ICAM-1 or anti-NEU1 antibody, Western blot of the partner
[2] = target: intercellular cell adhesion molecule-1 (ICAM-1), endogenous in HUVEC (human (endogenous in HUVEC)) (UniProt P05362); test: as above

Substance	binding [1]	binding [2]
intercellular cell adhesion molecule-1 (ICAM-1), endogenous in HUVEC (from UniProt P05362 28-532) (receptor)	binds	
neuraminidase-1 (NEU1), endogenous in HUVEC (from UniProt Q99519 48-415) (enzyme)		binds
